The other results are listed elsewhere or left out.
Experiments:
Assay in all cases: glycan array binding signal (z-score within array); higher = stronger binding
Conditions in all cases: glycan notation: IUPAC condensed, linker removed
[1] = molecular target: Gal3S(b1-4)[Fuc(a1-3)]Glc
In short: (§1)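 Columns mapping to the same glycan were averaged after glycan names were converted to IUPAC-condensed notation. The data come from 3228 arrays in the Consortium for Functional Glycomics database, limited to those with an available protein sequence. Binding is reported as a within-array Z-score averaged across arrays of one protein sequence and across linkers.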

[2] = molecular target: Gal3S(b1-4)[Fuc(a1-3)]Glc6S
In short: as §1

Gal3S4S(b1-4)GlcNAc = molecular target: Gal3S4S(b1-4)GlcNAc
In short: as §1

Gal3S6S(b1-4)GlcNAc = molecular target: Gal3S6S(b1-4)GlcNAc
In short: as §1

Gal3S6S(b1-4)GlcNAc6S = molecular target: Gal3S6S(b1-4)GlcNAc6S
In short: as §1

Gal4S(b1-4)GlcNAc = molecular target: Gal4S(b1-4)GlcNAc
In short: as §1

Gal4S6S(b1-4)GlcNAc = molecular target: Gal4S6S(b1-4)GlcNAc
In short: as §1

Gal6S(b1-4)Glc = molecular target: Gal6S(b1-4)Glc
In short: as §1

Gal6S(b1-4)Glc6S = molecular target: Gal6S(b1-4)Glc6S
In short: as §1

Gal6S(b1-4)GlcNAc = molecular target: Gal6S(b1-4)GlcNAc
In short: as §1

Gal6S(b1-4)GlcNAc6S = molecular target: Gal6S(b1-4)GlcNAc6S
In short: as §1

GalNAc(a1-3)Gal = molecular target: GalNAc(a1-3)Gal
In short: as §1

GalNAc(a1-3)GalNAc = molecular target: GalNAc(a1-3)GalNAc
In short: as §1

[3] = molecular target: GalNAc(a1-3)GalNAc(a1-3)Gal(a1-4)Gal(b1-4)GlcNAc
In short: as §1

GalNAc(b1-3)Gal = molecular target: GalNAc(b1-3)Gal
In short: as §1

[4] = molecular target: GalNAc(b1-3)Gal(a1-4)Gal(b1-4)GlcNAc
In short: as §1

[5] = molecular target: GalNAc(b1-3)Gal(a1-4)Gal(b1-4)GlcNAc(b1-3)Gal(b1-4)Glc
In short: as §1

[6] = molecular target: GalNAc(b1-3)Gal(a1-6)Gal(b1-4)Glc
In short: as §1

GalNAc(b1-3)GalNAc = molecular target: GalNAc(b1-3)GalNAc
In short: as §1

GalNAc(b1-4)GlcNAc = molecular target: GalNAc(b1-4)GlcNAc
In short: as §1

[7] = molecular target: GalNAc(b1-4)GlcNAc(b1-2)Man(a1-3)[GalNAc(b1-4)GlcNAc(b1-2)Man(a1-6)]Man(b1-4)GlcNAc(b1-4)GlcNAc
In short: as §1

Glc(a1-4)Glc = molecular target: Glc(a1-4)Glc
In short: as §1

Glc(a1-6)Glc(a1-6)Glc = molecular target: Glc(a1-6)Glc(a1-6)Glc
In short: as §1

Glc(b1-4)Glc = molecular target: Glc(b1-4)Glc
In short: as §1

Glc(b1-6)Glc = molecular target: Glc(b1-6)Glc
In short: as §1

GlcA(b1-3)Gal = molecular target: GlcA(b1-3)Gal
In short: as §1

GlcA(b1-3)GlcNAc = molecular target: GlcA(b1-3)GlcNAc
In short: as §1

GlcA(b1-6)Gal = molecular target: GlcA(b1-6)Gal
In short: as §1

[8] = molecular target: GlcNAc(a1-3)Gal(b1-4)GlcNAc
In short: as §1

[9] = molecular target: GlcNAc(a1-4)Gal(b1-3)GlcNAc
In short: as §1

[10] = molecular target: GlcNAc(a1-4)Gal(b1-4)GalNAc
In short: as §1

[11] = molecular target: GlcNAc(a1-4)Gal(b1-4)GlcNAc
In short: as §1

[12] = molecular target: GlcNAc(a1-4)Gal(b1-4)GlcNAc(b1-3)Gal(b1-4)Glc
In short: as §1

[13] = molecular target: GlcNAc(a1-4)Gal(b1-4)GlcNAc(b1-3)Gal(b1-4)GlcNAc
In short: as §1

[14] = molecular target: GlcNAc(a1-4)Gal(b1-4)GlcNAc(b1-3)Gal(b1-4)GlcNAc(b1-3)Gal(b1-4)GlcNAc
In short: as §1

[15] = molecular target: GlcNAc(a1-4)Gal(b1-4)GlcNAc(b1-3)Gal(b1-4)[Fuc(a1-3)]GlcNAc(b1-3)Gal(b1-4)[Fuc(a1-3)]GlcNAc
In short: as §1

[16] = molecular target: GlcNAc(a1-6)Gal(b1-4)GlcNAc
In short: as §1

[17] = molecular target: GlcNAc(b1-2)Gal(b1-3)GalNAc
In short: as §1

[18] = molecular target: GlcNAc(b1-2)Man(a1-3)[GlcNAc(b1-2)Man(a1-6)]Man(b1-4)GlcNAc(b1-4)GlcNAc
In short: as §1

[19] = molecular target: GlcNAc(b1-2)Man(a1-3)[GlcNAc(b1-2)Man(a1-6)]Man(b1-4)GlcNAc(b1-4)[Fuc(a1-6)]GlcNAc
In short: as §1

[20] = molecular target: GlcNAc(b1-2)[GlcNAc(b1-4)]Man(a1-3)[GlcNAc(b1-2)Man(a1-6)]Man(b1-4)GlcNAc(b1-4)GlcNAc
In short: as §1

GlcNAc(b1-3)Gal = molecular target: GlcNAc(b1-3)Gal
In short: as §1

[21] = molecular target: GlcNAc(b1-3)Gal(b1-3)GalNAc
In short: as §1

GlcNAc(b1-3)Gal(b1-4)Glc = molecular target: GlcNAc(b1-3)Gal(b1-4)Glc
In short: as §1

[22] = molecular target: GlcNAc(b1-3)Gal(b1-4)GlcNAc
In short: as §1

B1: SRS6 (Toxoplasma gondii), Q9NH12 (protein)
chain: MARTGSMQQRRGGFQTTARMLMAVCVSGVLLLSSGPSSANKLTEGQQNQNSGPGAATQEGPTIEGAVAKCVLKTTAAENGSSRAKNTTGLTLSKENLVVSLQCSGEKNAIVPKDQKKVCSAAPNAKVADCKGADTDKQVTLKSLLGTSGDIQWEKTIVSTDNKGEVMTLKIKESELPLFDKAFFVGCEEDKAQTRTSQATECKVNVSVKARPSTVGENNVVTCAYGKDSNPRPLEVEMSADNDTLTIDCGTDGSLKPTKYTEEFCVTDNSQLESCTTKKFSEILPTFLPSWWVSDSQNGSAKLTIPESGFPEEQQQFRLGCVPKKTTQSPQANPSVKTEKEEGAQNTDASTSNCSVIVTVKASNFSSLASSIAPTAAVAGGAAALTGFLVGSF
With B1 the “glycan array binding signal (z-score)” value [1] was 0.713, the “glycan array binding signal (z-score)” value [2] was -0.291 and the “glycan array binding signal (z-score)” value (Gal3S4S(b1-4)GlcNAc) was -0.161. For the same binder, the “glycan array binding signal (z-score)” value (Gal3S6S(b1-4)GlcNAc) was 0.781, the “glycan array binding signal (z-score)” value (Gal3S6S(b1-4)GlcNAc6S) was -1.17 and the “glycan array binding signal (z-score)” value (Gal4S(b1-4)GlcNAc) was 0.61. For the same binder, the “glycan array binding signal (z-score)” value (Gal4S6S(b1-4)GlcNAc) was 0.75, the “glycan array binding signal (z-score)” value (Gal6S(b1-4)Glc) was -0.351 and the “glycan array binding signal (z-score)” value (Gal6S(b1-4)Glc6S) was 4.38. For the same binder, the “glycan array binding signal (z-score)” value (Gal6S(b1-4)GlcNAc) was 0.098, the “glycan array binding signal (z-score)” value (Gal6S(b1-4)GlcNAc6S) was 0.86 and the “glycan array binding signal (z-score)” value (GalNAc(a1-3)Gal) was 0.054. For the same binder, the “glycan array binding signal (z-score)” value (GalNAc(a1-3)GalNAc) was 0.939, the “glycan array binding signal (z-score)” value [3] was 0.683 and the “glycan array binding signal (z-score)” value (GalNAc(b1-3)Gal) was 0.499. For the same binder, the “glycan array binding signal (z-score)” value [4] was -0.316, the “glycan array binding signal (z-score)” value [5] was -0.699 and the “glycan array binding signal (z-score)” value [6] was 1.31. For the same binder, the “glycan array binding signal (z-score)” value (GalNAc(b1-3)GalNAc) was 0.267, the “glycan array binding signal (z-score)” value (GalNAc(b1-4)GlcNAc) was -0.358 and the “glycan array binding signal (z-score)” value [7] was 0.625. For the same binder, the “glycan array binding signal (z-score)” value (Glc(a1-4)Glc) was -0.129, the “glycan array binding signal (z-score)” value (Glc(a1-6)Glc(a1-6)Glc) was -0.454 and the “glycan array binding signal (z-score)” value (Glc(b1-4)Glc) was -0.479. For the same binder, the “glycan array binding signal (z-score)” value (Glc(b1-6)Glc) was -0.615, the “glycan array binding signal (z-score)” value (GlcA(b1-3)Gal) was -0.167 and the “glycan array binding signal (z-score)” value (GlcA(b1-3)GlcNAc) was -0.705. For the same binder, the “glycan array binding signal (z-score)” value (GlcA(b1-6)Gal) was -0.589, the “glycan array binding signal (z-score)” value [8] was -1.13 and the “glycan array binding signal (z-score)” value [9] was 1.16. The “glycan array binding signal (z-score)” value [10] was 0.375, the “glycan array binding signal (z-score)” value [11] was -0.154 and the “glycan array binding signal (z-score)” value [12] was -0.512. The “glycan array binding signal (z-score)” value [13] was 0.319, the “glycan array binding signal (z-score)” value [14] was -0.784 and the “glycan array binding signal (z-score)” value [15] was 0.807. The “glycan array binding signal (z-score)” value [16] was 0.274, the “glycan array binding signal (z-score)” value [17] was -0.053 and the “glycan array binding signal (z-score)” value [18] was -1.05. For the same binder, the “glycan array binding signal (z-score)” value [19] was 13.7, the “glycan array binding signal (z-score)” value [20] was -0.165 and the “glycan array binding signal (z-score)” value (GlcNAc(b1-3)Gal) was 0.424. The “glycan array binding signal (z-score)” value [21] was -0.739, the “glycan array binding signal (z-score)” value (GlcNAc(b1-3)Gal(b1-4)Glc) was -1.14 and the “glycan array binding signal (z-score)” value [22] was -0.665.

— the supplement of paper PMC8728848
